Results published in patent US11202821B2, “Glucose oxidase compositions” (VEGANUTRITECH LLP, priority 2016, dated 2021).

Assays:
[1] = background statement; cited from earlier work
[2] = Sweetness levels and after taste comparison (taste evaluation); parameters: species or system human; details: for Sweetness index: sweetness intensity on a scale of 0-5, 0 = no perceptible sweetness, 5 = sweetness of sugar, 10 ml sample

| Molecule | glycemic index [1] | After-taste [2] | Sweetness index [2] |
| --- | --- | --- | --- |
| O.O=C[C@H](O)[C@@H](O)[C@H](O)[C@H](O)CO [Dextrose monohydrate] | ≥ 100 | – | – |
| OC[C@H]1OC(O)[C@H](O)[C@@H](O)[C@@H]1O (some centres unmarked) [Glucose] | 100 | No | 2 |
| OC[C@H]1O[C@@](CO)(O[C@H]2O[C@H](CO)[C@@H](O)[C@H](O)[C@H]2O)[C@@H](O)[C@@H]1O [Sugar] | 65 | No | 5 |
| maltodextrin | 110 | – | – |
